The results in this text go back to patent publication US20240108662A1, “ENGINEERED CELLS FUNCTIONALIZED WITH IMMUNE CHECKPOINT MOLECULES AND USES THEREOF” (The University of North Carolina at Chapel Hill, priority 2020, published 2024).

The data set in a line: Proteomic analysis of native murine pancreata and decelled pancreatic ECM (Table 1). Set-up: species or system mouse. As to conditions: for Pancreatic ECM: Mean of log2(intensities): abundance of the listed protein in decelled pancreatic ECM; for Native pancreas tissue: Mean of log2(intensities): abundance of the listed protein in native murine pancreas tissue.

B1: Q8BXQ2 (protein, UniProt Q8BXQ2 1-582, looked up)
chain: MAAAMPLGLPLRLLVLLLVGRGCCGCAEGPRDSLREELVITPLPSGDVAATFQFRTRWDSDLQREGVSHYRLFPKALGQLISKYSLRELHLSFTQGFWRTRYWGPPFLQAPSGAELWVWFQDTVTDVDKSWRELSNVLSGIFCASLNFIDATNTVTPTASFKPLGLANDTDDYFLRYAVLPREVVCTENLTPWKKLLPCSSKAGLSVLLKADRLFHTSYHSQAVHIRPICRNAHCTSISWELRQTLSVVFDAFITGQGKKDWSLFRMFSRTLTEACPLASQSLVYVDITGYSQDNETLEVSPPPTSTYQDVILGTRKTYAVYDLFDTAMINNSRNLNIQLKWKRPPDNEALPVPFLHAQRYVSGYGLQKGELSTLLYNSHPYRAFPVLLLDVVPWYLRLYVHTLTITSKGKENKPSYIHYQPAQDRQQPHLLEMLIQLPANSVTKVSIQFERALLKWTEYTPDPNHGFYVSPSVLSALVPSVVAAKPVDWEGSPLFNTLFPVSDGSSYFVRLYTEPLLVNLPTPDFSMPYNVICLTCTVVAVCYGSFYNLLTRTFHIEEPKSGGLAKRLANLIRRARGVPPL
modifications: full-length
In the case of B1, the “Pancreatic ECM: Mean of log2(intensities)” value was 24.67 a.u and the “Native pancreas tissue: Mean of log2(intensities)” value came to 21.02 a.u.

B2: B2RY56 (protein, UniProt B2RY56 1-838, looked up)
chain: MSFPPHLNRPPMGIPALPPGIPPPQFPGFPPPVPPGTPMIPVPMSIMAPAPTVLVPTVSMVGKHLGARKDHPGLKLKENDENCGPTTTVFVGNISEKASDMLIRQLLAKCGLVLSWKRVQGASGKLQAFGFCEYKEPESTLRALRLLHDLQIGEKKLLVKVDAKTKAQLDEWKAKKKANGNARPETVTNDDEEALDEETKRRDQMIKGAIEVLIREYSSELNAPSQESDSHPRKKKKEKKEDIFRRFPVAPLIPYPLITKEDINAIEMEEDKRDLISREISKFRDTHKKLEEEKGKKEKERQEIEKERRERERERERERERREREREREREREREKEKERERERERDRDRDRTKERDRDRERDRDRDRERSSDRNKDRSRSREKSRDREREREREREREREREREREREREREREREREREKDKKRDREEDEEDAYERRKLERKLREKEAAYQERLKNWEIRERKKTREYEKEAEREEERRREMAKEAKRLKEFLEDYDDDRDDPKYYRGSALQKRLRDREKEMEADERDRKREKEELEEIRQRLLAEGHPDPDAELQRMEQEAERRRQPQIKQEPESEEEEEEKQEKEEKREEPVEEEEEPEQKPCLKPTLRPISSAPSVSSASGNATPNTPGDESPCGIIIPHENSPDQQQPEEHRPKIGLSLKLGASNSPGQPNSVKRKKLPVDSVFNKFEDEDSDDVPRKRKLVPLDYGEDDKNATKGTVNTEEKRKHIKSLIEKIPTAKPELFAYPLDWSIVDSILMERRIRPWINKKIIEYIGEEEATLVDFVCSKVMAHSSPQSILDDVAMVLDEEAEVFIVKMWRLLIYETEAKKIGLVK
modifications: full-length
As to B2, the “Pancreatic ECM: Mean of log2(intensities)” value worked out at 24.86 a.u and the “Native pancreas tissue: Mean of log2(intensities)” value is on record as 21.21 a.u.

B3: Q8BS95 (protein, UniProt Q8BS95 1-455, looked up)
chain: MSFLIDSSIMITSQILFFGFGWLFFMRQLFKDYEVRQYVVQVIFSVTFAFSCTMFELIIFEILGVLNSSSRYFHWKLNLCVILLILVFMVPFYIGYFIVSNIQLLHKQRLLFSCLLWLTFMYFFWKLGDPFPILSPKHGILSIEQLISRVGVIGVTLMALLSGFGAVNCPYTYMSYFLRNVTDTDILALERRLLQTMDMIISKKKRMAVARRTMFQRGDVQNKPSGLWGMLKSVTASAPGSENLTLIQQEVDALEELSRQLFLETADLYATKERIEYSKTFKGKYFNFLGYFFSIYCVWKIFMATINIVLDRVGKTDPVTRGIEITVNYLGIQFDVKFWSQHISFILVGIIIVTSIRGLLITLTKFFYAISSSKSSNVIVLLLAQIMGMYFVSSVLLIRMSMPPEYRTIITEVLGELQFNFYHRWFDVIFLVSALSSILFLYLAHKQAPEKHMAP
modifications: full-length
Consider B3, for which the “Pancreatic ECM: Mean of log2(intensities)” value amounted to 24.82 a.u and the “Native pancreas tissue: Mean of log2(intensities)” value came to 21.18 a.u.

B4: Q9QZU5 (protein, UniProt Q9QZU5 1-150, looked up)
chain: MSYTCNSGNYSSQSFGGFLRQPVSTYNSFYPTSNVVYSPKNFQLGSSFYNGQQETFSEPLEGHLPCVGSASFHTSCFRPKQYFSSPCQGGFTGSFGYGNTGFGAFGFGSSGIRSQGCGSNFYRPGYFSSKSIQSSYYQPGYSSGFCGSNF
modifications: full-length
As for B4, the “Pancreatic ECM: Mean of log2(intensities)” value turned out to be 25.18 a.u and the “Native pancreas tissue: Mean of log2(intensities)” value is on record as 21.55 a.u.
